Measured values: publication PMC5608968

By UniProt entry, the sequences of proteins in these tests, tags left out. Where a name states a change or a piece, a line headed by the entry shows the natural chain unless it says otherwise. Chains listed by the source or under a name are the forms on record and can include a tag or linker.
FLAG-hPIASxα (O75928, form named): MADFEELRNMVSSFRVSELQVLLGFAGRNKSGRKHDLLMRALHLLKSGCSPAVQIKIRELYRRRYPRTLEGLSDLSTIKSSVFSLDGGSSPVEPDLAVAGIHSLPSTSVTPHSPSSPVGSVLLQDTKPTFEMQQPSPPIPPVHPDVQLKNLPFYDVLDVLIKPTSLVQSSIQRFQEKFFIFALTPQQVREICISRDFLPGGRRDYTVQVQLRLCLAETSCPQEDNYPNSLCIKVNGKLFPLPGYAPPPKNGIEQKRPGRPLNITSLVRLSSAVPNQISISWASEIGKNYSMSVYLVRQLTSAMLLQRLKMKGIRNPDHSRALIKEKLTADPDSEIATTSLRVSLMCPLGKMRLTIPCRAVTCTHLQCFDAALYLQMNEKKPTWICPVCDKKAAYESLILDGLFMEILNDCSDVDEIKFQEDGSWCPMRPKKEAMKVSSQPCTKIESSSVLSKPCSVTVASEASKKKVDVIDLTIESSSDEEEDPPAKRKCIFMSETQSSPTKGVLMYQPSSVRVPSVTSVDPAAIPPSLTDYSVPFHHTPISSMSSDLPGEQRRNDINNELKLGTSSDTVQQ
UniProt P61956: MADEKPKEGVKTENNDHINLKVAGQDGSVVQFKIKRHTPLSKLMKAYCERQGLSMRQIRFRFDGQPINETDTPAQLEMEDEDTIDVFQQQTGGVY

Biological target: FLAG-hPIASxα (human) (UniProt O75928)
Assay: pull-down; both purified

Recombinant human His-SUMO2 (from UniProt P61956)
binding: binds

These are yes or no findings as the source states them, for the method shown. A result given as binding can be weak or reduced; the word gives no strength.
